In the supplement of paper PMC10849652:
Some of the results follow.

By UniProt entry, the sequences of proteins in these tests, tags left out. Where a name states a change or a piece, a line headed by the entry shows the natural chain unless it says otherwise.
UniProt O94832: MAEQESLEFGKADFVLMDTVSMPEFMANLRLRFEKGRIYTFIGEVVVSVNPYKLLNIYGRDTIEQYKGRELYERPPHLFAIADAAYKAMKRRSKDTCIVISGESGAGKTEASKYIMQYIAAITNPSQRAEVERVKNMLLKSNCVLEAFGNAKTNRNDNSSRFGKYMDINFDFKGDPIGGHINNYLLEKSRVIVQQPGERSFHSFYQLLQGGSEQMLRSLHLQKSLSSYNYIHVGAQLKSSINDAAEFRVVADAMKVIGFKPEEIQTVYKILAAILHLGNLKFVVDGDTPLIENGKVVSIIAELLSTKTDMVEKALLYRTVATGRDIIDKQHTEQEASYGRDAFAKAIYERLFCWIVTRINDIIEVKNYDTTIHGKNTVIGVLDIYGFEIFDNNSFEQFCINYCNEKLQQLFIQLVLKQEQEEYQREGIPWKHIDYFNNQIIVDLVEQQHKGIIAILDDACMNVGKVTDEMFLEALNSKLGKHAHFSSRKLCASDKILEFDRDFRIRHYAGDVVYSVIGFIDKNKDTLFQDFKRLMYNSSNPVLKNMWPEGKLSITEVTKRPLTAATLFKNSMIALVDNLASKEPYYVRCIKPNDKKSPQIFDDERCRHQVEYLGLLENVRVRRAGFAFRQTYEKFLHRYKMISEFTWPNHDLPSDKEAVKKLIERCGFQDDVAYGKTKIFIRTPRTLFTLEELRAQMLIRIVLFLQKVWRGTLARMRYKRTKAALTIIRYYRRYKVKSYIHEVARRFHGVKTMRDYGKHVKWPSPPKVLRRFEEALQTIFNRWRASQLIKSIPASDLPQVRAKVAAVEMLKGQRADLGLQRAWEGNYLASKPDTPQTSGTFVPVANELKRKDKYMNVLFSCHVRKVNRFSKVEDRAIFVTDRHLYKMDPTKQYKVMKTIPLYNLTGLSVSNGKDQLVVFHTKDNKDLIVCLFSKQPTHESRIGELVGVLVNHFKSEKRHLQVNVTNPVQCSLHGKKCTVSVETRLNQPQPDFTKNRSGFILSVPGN
UniProt P18440: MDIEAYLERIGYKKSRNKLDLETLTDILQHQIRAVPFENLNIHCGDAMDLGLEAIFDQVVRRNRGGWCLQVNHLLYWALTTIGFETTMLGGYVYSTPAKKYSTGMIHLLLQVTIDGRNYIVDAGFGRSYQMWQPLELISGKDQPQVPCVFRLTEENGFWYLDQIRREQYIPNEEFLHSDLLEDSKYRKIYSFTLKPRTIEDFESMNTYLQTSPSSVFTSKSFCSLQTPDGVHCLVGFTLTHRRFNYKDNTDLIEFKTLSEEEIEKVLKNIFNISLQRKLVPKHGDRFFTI
UniProt P08590, whole entry, looked up: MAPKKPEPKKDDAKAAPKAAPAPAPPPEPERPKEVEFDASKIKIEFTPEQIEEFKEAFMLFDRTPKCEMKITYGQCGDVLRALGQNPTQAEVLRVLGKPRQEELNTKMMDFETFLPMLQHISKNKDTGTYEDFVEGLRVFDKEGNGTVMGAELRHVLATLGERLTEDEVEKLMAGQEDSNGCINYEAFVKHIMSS
UniProt Q8NI08: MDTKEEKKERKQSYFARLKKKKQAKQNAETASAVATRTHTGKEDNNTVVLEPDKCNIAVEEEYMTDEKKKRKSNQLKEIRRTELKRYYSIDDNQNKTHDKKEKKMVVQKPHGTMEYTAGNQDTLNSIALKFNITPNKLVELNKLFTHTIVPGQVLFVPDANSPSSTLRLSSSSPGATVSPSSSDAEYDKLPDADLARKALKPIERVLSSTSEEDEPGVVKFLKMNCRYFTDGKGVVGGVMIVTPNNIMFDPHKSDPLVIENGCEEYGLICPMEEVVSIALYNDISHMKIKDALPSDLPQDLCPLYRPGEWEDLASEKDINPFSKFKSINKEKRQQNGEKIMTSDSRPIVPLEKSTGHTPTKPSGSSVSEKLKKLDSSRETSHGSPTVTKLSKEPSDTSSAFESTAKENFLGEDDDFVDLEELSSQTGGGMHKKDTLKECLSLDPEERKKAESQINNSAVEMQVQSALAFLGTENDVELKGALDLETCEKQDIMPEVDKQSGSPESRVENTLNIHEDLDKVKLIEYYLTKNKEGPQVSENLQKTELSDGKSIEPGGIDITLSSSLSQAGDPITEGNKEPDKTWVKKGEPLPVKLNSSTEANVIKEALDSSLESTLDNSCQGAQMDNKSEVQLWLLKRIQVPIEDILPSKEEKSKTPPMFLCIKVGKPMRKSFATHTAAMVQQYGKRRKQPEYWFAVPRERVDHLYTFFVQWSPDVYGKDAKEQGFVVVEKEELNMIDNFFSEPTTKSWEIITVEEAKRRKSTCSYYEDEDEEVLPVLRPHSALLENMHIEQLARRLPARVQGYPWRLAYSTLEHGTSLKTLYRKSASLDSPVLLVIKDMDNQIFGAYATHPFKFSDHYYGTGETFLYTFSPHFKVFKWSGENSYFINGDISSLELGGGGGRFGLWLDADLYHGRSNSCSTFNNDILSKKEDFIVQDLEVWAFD
UniProt O95544: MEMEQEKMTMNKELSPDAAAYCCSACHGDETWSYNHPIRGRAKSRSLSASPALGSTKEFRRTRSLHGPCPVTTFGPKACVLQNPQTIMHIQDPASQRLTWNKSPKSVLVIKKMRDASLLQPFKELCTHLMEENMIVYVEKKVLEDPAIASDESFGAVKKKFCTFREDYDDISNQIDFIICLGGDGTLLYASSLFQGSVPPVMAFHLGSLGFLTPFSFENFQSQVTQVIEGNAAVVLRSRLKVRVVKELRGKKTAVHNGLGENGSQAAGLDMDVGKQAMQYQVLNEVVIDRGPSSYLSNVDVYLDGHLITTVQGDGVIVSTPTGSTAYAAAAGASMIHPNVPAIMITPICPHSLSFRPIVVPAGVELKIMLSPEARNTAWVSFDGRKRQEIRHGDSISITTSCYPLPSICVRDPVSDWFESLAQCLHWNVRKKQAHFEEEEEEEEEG
UniProt Q5TBK1: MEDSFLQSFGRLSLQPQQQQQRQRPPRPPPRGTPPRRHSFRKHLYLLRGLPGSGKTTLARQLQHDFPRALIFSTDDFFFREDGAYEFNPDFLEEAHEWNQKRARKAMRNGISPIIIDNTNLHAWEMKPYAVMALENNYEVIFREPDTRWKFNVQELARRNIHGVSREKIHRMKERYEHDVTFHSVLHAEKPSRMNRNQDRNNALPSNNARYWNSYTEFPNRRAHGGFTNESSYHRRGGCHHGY
UniProt Q96H55, whole entry, looked up: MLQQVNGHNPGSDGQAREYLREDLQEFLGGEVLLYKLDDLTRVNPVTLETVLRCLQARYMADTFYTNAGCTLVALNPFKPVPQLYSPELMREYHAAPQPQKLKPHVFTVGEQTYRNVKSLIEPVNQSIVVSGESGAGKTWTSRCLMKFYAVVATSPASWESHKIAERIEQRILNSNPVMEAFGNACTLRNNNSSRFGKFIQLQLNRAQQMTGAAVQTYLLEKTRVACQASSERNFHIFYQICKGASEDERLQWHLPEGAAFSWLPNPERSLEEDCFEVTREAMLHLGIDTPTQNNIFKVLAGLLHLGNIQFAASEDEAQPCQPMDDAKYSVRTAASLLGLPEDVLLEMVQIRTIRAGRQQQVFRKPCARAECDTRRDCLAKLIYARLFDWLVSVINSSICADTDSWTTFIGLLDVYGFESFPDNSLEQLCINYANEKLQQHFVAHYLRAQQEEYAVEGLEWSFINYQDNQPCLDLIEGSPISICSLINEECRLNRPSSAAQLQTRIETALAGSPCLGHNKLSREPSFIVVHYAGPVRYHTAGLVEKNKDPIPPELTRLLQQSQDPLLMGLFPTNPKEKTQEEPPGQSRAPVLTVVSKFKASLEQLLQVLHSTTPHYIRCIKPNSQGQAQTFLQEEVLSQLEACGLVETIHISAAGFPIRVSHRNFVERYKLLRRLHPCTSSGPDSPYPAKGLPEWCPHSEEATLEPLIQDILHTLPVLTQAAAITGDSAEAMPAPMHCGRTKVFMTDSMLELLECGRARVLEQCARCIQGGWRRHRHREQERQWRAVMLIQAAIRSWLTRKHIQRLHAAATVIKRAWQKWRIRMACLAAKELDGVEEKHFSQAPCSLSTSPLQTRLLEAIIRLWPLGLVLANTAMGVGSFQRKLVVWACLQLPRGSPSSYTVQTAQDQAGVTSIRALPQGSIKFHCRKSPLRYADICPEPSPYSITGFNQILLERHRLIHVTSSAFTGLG
UniProt Q6NZ67, whole entry, looked up: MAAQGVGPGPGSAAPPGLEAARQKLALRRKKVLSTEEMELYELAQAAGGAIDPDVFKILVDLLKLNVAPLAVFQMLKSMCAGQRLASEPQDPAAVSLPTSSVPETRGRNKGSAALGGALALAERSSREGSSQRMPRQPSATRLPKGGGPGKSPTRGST
UniProt P49321, whole entry, looked up: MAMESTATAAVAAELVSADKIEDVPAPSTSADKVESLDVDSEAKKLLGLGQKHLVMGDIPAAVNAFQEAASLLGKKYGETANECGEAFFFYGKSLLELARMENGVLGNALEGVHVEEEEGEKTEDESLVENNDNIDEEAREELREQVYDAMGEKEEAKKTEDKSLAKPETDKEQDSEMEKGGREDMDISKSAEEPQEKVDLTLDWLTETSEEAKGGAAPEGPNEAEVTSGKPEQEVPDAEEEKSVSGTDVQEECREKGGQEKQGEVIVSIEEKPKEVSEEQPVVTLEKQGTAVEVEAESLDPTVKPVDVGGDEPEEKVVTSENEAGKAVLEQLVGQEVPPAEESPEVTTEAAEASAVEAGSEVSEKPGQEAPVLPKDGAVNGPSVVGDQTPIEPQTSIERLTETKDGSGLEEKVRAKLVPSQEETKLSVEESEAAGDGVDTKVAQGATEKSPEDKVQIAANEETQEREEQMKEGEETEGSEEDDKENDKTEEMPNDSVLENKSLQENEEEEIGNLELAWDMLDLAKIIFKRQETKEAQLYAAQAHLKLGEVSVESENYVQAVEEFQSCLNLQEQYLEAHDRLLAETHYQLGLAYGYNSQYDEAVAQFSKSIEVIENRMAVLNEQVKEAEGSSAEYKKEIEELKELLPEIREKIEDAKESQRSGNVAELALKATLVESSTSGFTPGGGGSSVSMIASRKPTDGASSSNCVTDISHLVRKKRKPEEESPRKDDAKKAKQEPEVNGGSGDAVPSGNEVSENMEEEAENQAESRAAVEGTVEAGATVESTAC
UniProt P42695: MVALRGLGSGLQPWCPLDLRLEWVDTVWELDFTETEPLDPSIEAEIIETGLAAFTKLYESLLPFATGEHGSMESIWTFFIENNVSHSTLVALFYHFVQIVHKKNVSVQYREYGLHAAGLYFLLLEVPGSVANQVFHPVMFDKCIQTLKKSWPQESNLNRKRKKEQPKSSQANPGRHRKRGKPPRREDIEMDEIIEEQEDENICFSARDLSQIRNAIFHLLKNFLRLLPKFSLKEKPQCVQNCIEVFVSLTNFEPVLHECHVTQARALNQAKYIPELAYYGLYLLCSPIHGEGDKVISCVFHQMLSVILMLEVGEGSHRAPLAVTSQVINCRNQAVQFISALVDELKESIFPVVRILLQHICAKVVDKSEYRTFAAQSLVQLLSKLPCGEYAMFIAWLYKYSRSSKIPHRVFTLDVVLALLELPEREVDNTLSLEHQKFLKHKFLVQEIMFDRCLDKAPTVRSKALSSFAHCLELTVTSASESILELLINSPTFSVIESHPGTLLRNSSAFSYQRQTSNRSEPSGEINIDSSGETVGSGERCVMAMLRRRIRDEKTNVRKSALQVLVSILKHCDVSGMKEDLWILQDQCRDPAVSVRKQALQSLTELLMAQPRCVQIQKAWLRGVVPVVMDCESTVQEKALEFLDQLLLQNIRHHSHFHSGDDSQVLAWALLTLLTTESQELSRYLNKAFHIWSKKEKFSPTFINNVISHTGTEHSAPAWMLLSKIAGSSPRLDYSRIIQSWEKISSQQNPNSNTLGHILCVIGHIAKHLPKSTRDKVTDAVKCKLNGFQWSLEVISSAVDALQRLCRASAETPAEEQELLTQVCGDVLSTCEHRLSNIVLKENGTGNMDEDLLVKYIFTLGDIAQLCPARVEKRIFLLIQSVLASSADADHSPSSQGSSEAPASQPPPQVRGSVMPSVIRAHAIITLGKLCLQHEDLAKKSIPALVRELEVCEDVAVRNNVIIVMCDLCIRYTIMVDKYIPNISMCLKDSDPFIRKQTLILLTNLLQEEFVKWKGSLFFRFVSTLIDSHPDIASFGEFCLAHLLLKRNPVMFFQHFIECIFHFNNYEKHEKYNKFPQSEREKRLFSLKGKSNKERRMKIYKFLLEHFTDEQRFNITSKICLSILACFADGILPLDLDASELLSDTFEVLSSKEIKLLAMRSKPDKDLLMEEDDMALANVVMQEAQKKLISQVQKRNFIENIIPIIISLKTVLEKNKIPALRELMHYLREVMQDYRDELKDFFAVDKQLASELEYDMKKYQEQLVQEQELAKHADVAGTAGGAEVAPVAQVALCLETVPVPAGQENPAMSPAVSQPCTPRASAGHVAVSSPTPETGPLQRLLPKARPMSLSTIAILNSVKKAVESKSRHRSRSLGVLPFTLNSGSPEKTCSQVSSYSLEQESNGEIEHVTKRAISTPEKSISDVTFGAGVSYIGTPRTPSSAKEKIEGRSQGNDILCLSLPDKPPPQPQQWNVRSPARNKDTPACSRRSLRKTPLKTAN

Experiments:
Assay in all cases: log2 fold change, soluble protein after heating vs DMSO (PISA); higher = thermal stabilisation; K562 lysate, 10 uM; active = over 0.2 and 3.5 SD of the protein, either way, in both replicates (recomputed)
lapatinib = compound: CS(=O)(=O)CCNCc1ccc(-c2ccc3ncnc(Nc4ccc(OCc5cccc(F)c5)c(Cl)c4)c3c2)o1 [lapatinib]
How it was run: (§1)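 To prepare the extract, K562 pellets were dounce-homogenised in PBS pH 7.4 with 1 mM MgCl2, giving crude material at 1 mg/mL protein. This was treated with 10 μM compound for 30 min, then heated in aliquots for 3 min over 48°C-58°C before pooling and addition of NP-40 to 0.5% at 4°C. Centrifugation at 21,000xg for 90 min left soluble protein in the supernatant, which TMTpro 16plex LC-MS/MS quantified with equalised channel sums. Results are log-two fold changes in thermal stability compared with solvent controls, from duplicates.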

pictilisib = compound: CS(=O)(=O)N1CCN(Cc2cc3nc(-c4cccc5[nH]ncc45)nc(N4CCOCC4)c3s2)CC1 [pictilisib]
How it was run: as §1

crizotinib = compound: C[C@@H](Oc1cc(-c2cnn(C3CCNCC3)c2)cnc1N)c1c(Cl)ccc(F)c1Cl [crizotinib]
How it was run: as §1

[1] = compound: C[C@H](C1=CC=C(C=C1)C(=O)NC2=C3C=CNC3=NC=C2)N
How it was run: as §1

duvelisib = compound: C[C@H](Nc1ncnc2nc[nH]c12)c1cc2cccc(Cl)c2c(=O)n1-c1ccccc1 [duvelisib]
How it was run: as §1

gandotinib = compound: Cc1cc(Nc2cc(CN3CCOCC3)c3nc(C)c(Cc4ccc(Cl)cc4F)n3n2)n[nH]1 [gandotinib]
How it was run: as §1

tozasertib = compound: Cc1cc(Nc2cc(N3CCN(C)CC3)nc(Sc3ccc(NC(=O)C4CC4)cc3)n2)n[nH]1 [tozasertib]
How it was run: as §1

doramapimod = compound: Cc1ccc(-n2nc(C(C)(C)C)cc2NC(=O)Nc2ccc(OCCN3CCOCC3)c3ccccc23)cc1 [doramapimod]
How it was run: as §1

bafetinib = compound: Cc1ccc(NC(=O)c2ccc(CN3CC[C@H](N(C)C)C3)c(C(F)(F)F)c2)cc1Nc1nccc(-c2cncnc2)n1 [bafetinib]
How it was run: as §1

[2] = compound: Cc1cccc(CC(=O)N2CCc3c2ccc(-c2cn(C)c4ncnc(N)c24)c3F)n1
How it was run: as §1

nilotinib = compound: Cc1cn(-c2cc(NC(=O)c3ccc(C)c(Nc4nccc(-c5cccnc5)n4)c3)cc(C(F)(F)F)c2)cn1 [nilotinib]
How it was run: as §1

[3] = compound: Cc1nc(Nc2n[nH]c3c2CN(C(=O)N[C@H](CN(C)C)c2ccccc2)C3(C)C)c2sccc2n1
How it was run: as §1

dasatinib = compound: Cc1nc(Nc2ncc(C(=O)Nc3c(C)cccc3Cl)s2)cc(N2CCN(CCO)CC2)n1 [dasatinib]
How it was run: as §1

[4] = compound: Cc1ncc(-c2ccnc(Nc3ccc(S(C)(=O)=O)cc3)n2)n1C(C)C
How it was run: as §1

[5] = compound: Cn1cc(-c2ccc3c(c2)CCN3C(=O)Cc2cccc(C(F)(F)F)c2)c2c(N)ncnc21
How it was run: as §1

quisinostat = compound: Cn1cc(CNCC2CCN(c3ncc(C(=O)NO)cn3)CC2)c2ccccc21 [quisinostat]
How it was run: as §1

tipifarnib = compound: Cn1cncc1[C@@](N)(c1ccc(Cl)cc1)c1ccc2c(c1)c(-c1cccc(Cl)c1)cc(=O)n2C [tipifarnib]
How it was run: as §1

[6] = compound: NC(=O)Nc1cc(-c2cccc(F)c2)sc1C(=O)N[C@H]1CCCNC1
How it was run: as §1

[7] = compound: NC(=O)c1cnc(N[C@@H]2CCCC[C@@H]2N)nc1Nc1cccc(-n2nccn2)c1
How it was run: as §1

[8] = compound: NC1(c2ccc(-c3nc4ccn5c(=O)[nH]nc5c4cc3-c3ccccc3)cc2)CCC1
How it was run: as §1

Measured: log2 fold change

MYO1D (UniProt O94832)
inactive: lapatinib 0.014 | pictilisib -0.051 | crizotinib -0.035 | [1] 0.016 | duvelisib -0.028 | gandotinib -0.072 | tozasertib 0.01 | doramapimod 0.011 | bafetinib -0.041 | [2] -0.005 | nilotinib 0.002 | [3] -0.01 | dasatinib -0.036 | [4] -0.006 | [5] 0.016 | quisinostat -0.031 | tipifarnib -0.004 | [6] 0.05 | [7] 0 | [8] -0.042

NAA30 (UniProt Q147X3)
inactive: lapatinib -0.021 | pictilisib -0.028 | crizotinib -0.01 | [1] -0.025 | duvelisib -0.037 | gandotinib 0.012 | tozasertib 0.015 | doramapimod -0.028 | bafetinib 0.042 | [2] 0.06 | nilotinib -0.036 | [3] 0.019 | dasatinib -0.042 | [4] 0.059 | [5] -0.005 | quisinostat 0.032 | tipifarnib -0.097 | [6] 0.001 | [7] -0.018 | [8] 0.041

MYL6 (UniProt P60660)
inactive: lapatinib 0.042 | pictilisib 0.002 | crizotinib 0.033 | [1] 0.036 | duvelisib 0.004 | gandotinib 0.025 | tozasertib 0.02 | doramapimod -0.03 | bafetinib 0.015 | [2] -0.01 | nilotinib 0.003 | [3] 0.006 | dasatinib 0.023 | [4] 0.01 | [5] 0.018 | quisinostat -0.016 | tipifarnib 0.032 | [6] 0.002 | [7] -0.033 | [8] -0.019

NAT1 (UniProt P18440)
inactive: lapatinib 0.026 | pictilisib 0.111 | crizotinib -0.227 | [1] -0.089 | duvelisib 0.006 | gandotinib 0.004 | tozasertib -0.048 | doramapimod 0.058 | bafetinib 0.006 | [2] 0.083 | nilotinib -0.005 | [3] -0.017 | dasatinib -0.058 | [4] -0.04 | [5] 0.097 | quisinostat -0.1 | tipifarnib -0.006 | [6] 0.017 | [7] -0.018 | [8] -0.037

MYL3 (UniProt P08590)
inactive: lapatinib 0 | pictilisib 0.057 | crizotinib 0.105 | [1] 0.142 | gandotinib -0.079 | tozasertib 0.031 | doramapimod -0.017 | bafetinib -0.141 | [2] -0.024 | nilotinib 0.04 | [3] 0.023 | [4] 0.059 | quisinostat -0.02 | tipifarnib 0.018 | [6] 0.002 | [7] -0.001 | [8] -0.099

NCOA7 (UniProt Q8NI08)
inactive: lapatinib 0.009 | pictilisib -0.001 | crizotinib -0.028 | [1] 0.015 | duvelisib -0.006 | gandotinib -0.015 | tozasertib 0.024 | doramapimod 0.005 | bafetinib -0.04 | [2] 0.036 | nilotinib -0.009 | [3] -0.005 | dasatinib -0.016 | [4] 0.016 | [5] 0.005 | quisinostat -0.007 | tipifarnib -0.002 | [6] 0.019 | [7] -0.006 | [8] 0.005

NCAPH2 (UniProt Q6IBW4)
inactive: lapatinib -0.075 | pictilisib -0.023 | crizotinib -0.04 | [1] -0.01 | duvelisib -0.03 | gandotinib -0.052 | tozasertib 0.058 | doramapimod -0.051 | bafetinib -0.036 | [2] 0.185 | nilotinib -0.029 | [3] 0 | dasatinib -0.011 | [4] -0.048 | [5] 0.066 | quisinostat 0.051 | tipifarnib -0.014 | [6] 0.058 | [7] 0.004 | [8] 0.025

NADK (UniProt O95544)
inactive: lapatinib 0.016 | pictilisib -0.036 | crizotinib 0.015 | [1] -0.013 | duvelisib -0.004 | gandotinib 0.032 | tozasertib 0.032 | doramapimod 0.03 | bafetinib 0.068 | [2] -0.027 | nilotinib -0.024 | [3] 0 | dasatinib 0.03 | [4] 0.005 | [5] -0.026 | quisinostat -0.004 | tipifarnib 0.002 | [6] -0.039 | [7] -0.044 | [8] 0.025

N4BP2L1 (UniProt Q5TBK1)
inactive: lapatinib -0.148 | pictilisib -0.003 | [1] -0.331 | gandotinib 0.079 | tozasertib 0.15 | bafetinib -0.327 | [2] 0.226 | nilotinib -0.186 | [3] 0.041 | [4] 0.026 | tipifarnib -0.022 | [7] 0.044

MYO19 (UniProt Q96H55)
inactive: lapatinib -0.02 | pictilisib -0.182 | crizotinib 0.013 | [1] 0.026 | duvelisib -0.075 | gandotinib -0.16 | tozasertib 0.061 | doramapimod -0.075 | bafetinib -0.023 | [2] -0.03 | nilotinib 0.116 | [3] -0.054 | dasatinib 0.07 | [4] -0.095 | [5] -0.127 | quisinostat -0.045 | tipifarnib -0.023 | [6] 0.055 | [7] 0.093 | [8] -0.027

MZT2B (UniProt Q6NZ67)
inactive: lapatinib -0.004 | pictilisib -0.136 | crizotinib 0.035 | [1] 0.016 | gandotinib -0.008 | tozasertib 0.035 | doramapimod 0.021 | bafetinib -0.128 | [2] 0.095 | nilotinib -0.019 | [3] 0.075 | [4] -0.023 | quisinostat -0.043 | tipifarnib -0.052 | [6] 0.012 | [7] -0.081 | [8] -0.003

MUS81 (UniProt Q96NY9)
inactive: lapatinib 0.046 | pictilisib 0.156 | crizotinib -0.216 | [1] -0.077 | duvelisib -0.025 | gandotinib 0.135 | doramapimod 0.045 | bafetinib -0.246 | [2] 0.019 | nilotinib 0.037 | [3] -0.007 | dasatinib 0.152 | [4] -0.112 | [5] -0.029 | quisinostat -0.115 | tipifarnib -0.026 | [6] 0.03 | [7] -0.148 | [8] 0.11

NASP (UniProt P49321)
inactive: lapatinib -0.001 | pictilisib 0.014 | crizotinib 0.04 | [1] 0.019 | duvelisib 0.022 | gandotinib -0.004 | tozasertib 0 | doramapimod -0.027 | bafetinib 0.019 | [2] -0.054 | nilotinib 0.002 | [3] 0.01 | dasatinib 0.034 | [4] 0.007 | [5] 0.001 | quisinostat 0.052 | tipifarnib 0.024 | [6] -0.026 | [7] -0.016 | [8] -0.001

MYLK (UniProt Q15746)
active: doramapimod 0.611 | bafetinib 0.712
inactive: lapatinib -0.006 | pictilisib 0.015 | crizotinib 0.082 | [1] -0.181 | gandotinib 0.033 | tozasertib 0.114 | [2] -0.047 | nilotinib 0.138 | [3] -0.197 | [4] -0.108 | quisinostat 0.048 | tipifarnib -0.035 | [6] -0.175 | [7] 0.079

Reprinted from the entries so far (two entries):
MUS81 (UniProt Q96NY9)
inactive: lapatinib 0.046 | pictilisib 0.156 | crizotinib -0.216 | [1] -0.077 | duvelisib -0.025 | gandotinib 0.135 | doramapimod 0.045 | bafetinib -0.246 | [2] 0.019 | nilotinib 0.037 | [3] -0.007 | dasatinib 0.152 | [4] -0.112 | [5] -0.029 | quisinostat -0.115 | tipifarnib -0.026 | [6] 0.03 | [7] -0.148 | [8] 0.11

NASP (UniProt P49321)
inactive: lapatinib -0.001 | pictilisib 0.014 | crizotinib 0.04 | [1] 0.019 | duvelisib 0.022 | gandotinib -0.004 | tozasertib 0 | doramapimod -0.027 | bafetinib 0.019 | [2] -0.054 | nilotinib 0.002 | [3] 0.01 | dasatinib 0.034 | [4] 0.007 | [5] 0.001 | quisinostat 0.052 | tipifarnib 0.024 | [6] -0.026 | [7] -0.016 | [8] -0.001

Following part

NCAPD3 (UniProt P42695)
inactive: lapatinib -0.015 | pictilisib -0.009 | crizotinib -0.065 | [1] -0.013 | duvelisib -0.004 | gandotinib -0.099 | tozasertib -0.013 | doramapimod 0.02 | bafetinib -0.024 | [2] 0.047 | nilotinib 0.005 | [3] -0.022 | dasatinib -0.041 | [4] 0.005 | [5] 0.005 | quisinostat -0.06 | tipifarnib 0.005 | [6] 0.078 | [7] -0.014 | [8] -0.028

NACA4P (UniProt Q9BZK3)
inactive: lapatinib -0.048 | pictilisib -0.139 | crizotinib -0.135 | duvelisib 0.161 | tozasertib -0.106 | doramapimod -0.03 | bafetinib -0.158 | nilotinib 0.03 | [3] -0.005 | dasatinib -0.019 | [4] -0.02 | [5] -0.095 | quisinostat 0.069 | tipifarnib -0.023 | [6] 0.008 | [7] 0.006 | [8] -0.09

MUC5B (UniProt Q9HC84)
inactive: lapatinib -0.071 | crizotinib -0.042 | [1] 0.268 | duvelisib 0.023 | gandotinib 0.173 | tozasertib 0.993 | doramapimod -0.013 | [2] 0.603 | nilotinib -0.064 | [3] -0.111 | dasatinib -0.009 | [4] -0.005 | [5] -0.018 | quisinostat -0.192 | tipifarnib -0.051 | [6] 0.077 | [7] 0.064 | [8] 0.008
